No constants are given. Whether binding was seen depends on the method and setting. Binding seen in cells or lysates may run through a third protein. Some entries that bind do so weakly or less than the wild type.
Target: T1, RAD21 (endogenous) (human (endogenous in OVCAR8, OVCAR5 and HEY)) (UniProt O60216)
T1 sequence: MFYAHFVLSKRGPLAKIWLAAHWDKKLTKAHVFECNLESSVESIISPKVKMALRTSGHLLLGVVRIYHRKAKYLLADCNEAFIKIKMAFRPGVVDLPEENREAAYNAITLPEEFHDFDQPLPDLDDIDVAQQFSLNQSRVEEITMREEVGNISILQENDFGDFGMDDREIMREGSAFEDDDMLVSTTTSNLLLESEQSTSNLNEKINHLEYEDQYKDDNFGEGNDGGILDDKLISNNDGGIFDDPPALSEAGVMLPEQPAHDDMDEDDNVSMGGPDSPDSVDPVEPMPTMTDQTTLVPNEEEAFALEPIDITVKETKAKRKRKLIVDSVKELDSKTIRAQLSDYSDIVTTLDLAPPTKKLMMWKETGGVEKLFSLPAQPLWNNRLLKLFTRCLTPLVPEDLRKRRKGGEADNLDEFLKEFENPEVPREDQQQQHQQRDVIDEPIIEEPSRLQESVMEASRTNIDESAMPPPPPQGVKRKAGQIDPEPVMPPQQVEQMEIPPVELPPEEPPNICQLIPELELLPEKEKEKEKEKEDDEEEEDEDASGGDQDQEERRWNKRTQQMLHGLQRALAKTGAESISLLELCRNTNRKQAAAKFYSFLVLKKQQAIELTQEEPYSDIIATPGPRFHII
Assay: co-IP; endogenous proteins in cell extracts of OVCAR8, OVCAR5 and HEY cells; IP with anti-RAD21, anti-TEAD4 or anti-IgG; IP lysis buffer 50 mM Tris-HCl, 150 mM NaCl, 1.0% NP-40; protein G Dynabeads overnight at 4°C; immunoblotting

The chains behind the UniProt entries cited, without tags or fusion partners.
UniProt Q13547: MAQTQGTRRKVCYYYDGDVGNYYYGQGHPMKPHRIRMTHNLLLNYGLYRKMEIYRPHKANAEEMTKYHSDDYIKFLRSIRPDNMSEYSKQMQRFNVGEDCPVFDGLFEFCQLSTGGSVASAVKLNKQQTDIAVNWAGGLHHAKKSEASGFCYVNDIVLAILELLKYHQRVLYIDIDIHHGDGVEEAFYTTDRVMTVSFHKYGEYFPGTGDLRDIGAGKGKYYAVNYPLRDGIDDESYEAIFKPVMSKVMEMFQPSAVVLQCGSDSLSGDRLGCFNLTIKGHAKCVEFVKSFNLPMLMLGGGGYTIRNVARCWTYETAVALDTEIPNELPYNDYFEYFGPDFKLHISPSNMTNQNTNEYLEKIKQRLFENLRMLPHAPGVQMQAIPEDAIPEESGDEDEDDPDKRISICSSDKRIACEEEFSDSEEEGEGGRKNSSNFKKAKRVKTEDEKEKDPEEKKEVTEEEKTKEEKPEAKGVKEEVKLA
UniProt P46937: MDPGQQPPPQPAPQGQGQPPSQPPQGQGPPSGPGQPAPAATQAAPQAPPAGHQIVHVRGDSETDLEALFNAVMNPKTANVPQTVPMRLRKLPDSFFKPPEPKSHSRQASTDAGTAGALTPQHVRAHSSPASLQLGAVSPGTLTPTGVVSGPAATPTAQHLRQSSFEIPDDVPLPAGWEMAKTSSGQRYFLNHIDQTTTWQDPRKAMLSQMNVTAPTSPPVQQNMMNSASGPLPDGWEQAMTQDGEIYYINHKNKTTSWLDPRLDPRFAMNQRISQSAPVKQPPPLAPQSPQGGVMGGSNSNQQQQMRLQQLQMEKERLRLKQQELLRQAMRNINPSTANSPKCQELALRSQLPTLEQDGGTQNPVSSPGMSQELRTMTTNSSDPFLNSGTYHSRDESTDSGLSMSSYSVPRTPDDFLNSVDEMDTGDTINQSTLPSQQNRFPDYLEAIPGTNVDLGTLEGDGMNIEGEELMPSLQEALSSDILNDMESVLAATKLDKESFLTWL

Question: For “HDAC1 (endogenous) (from UniProt Q13547 1-482)”, which binding is on record?
Answer: binds

Question: How did the binding turn out when “YAP (endogenous) (from UniProt P46937 1-504)” was run?
Answer: binds

Source: article PMC9663158
